Measurements reported in the supplement of paper PMC10849652.
The other results are listed elsewhere or left out.

The chains behind the UniProt entries cited, without tags or fusion partners. Where a name states a change or a piece, a line headed by the entry shows the natural chain unless it says otherwise.
UniProt Q86W42: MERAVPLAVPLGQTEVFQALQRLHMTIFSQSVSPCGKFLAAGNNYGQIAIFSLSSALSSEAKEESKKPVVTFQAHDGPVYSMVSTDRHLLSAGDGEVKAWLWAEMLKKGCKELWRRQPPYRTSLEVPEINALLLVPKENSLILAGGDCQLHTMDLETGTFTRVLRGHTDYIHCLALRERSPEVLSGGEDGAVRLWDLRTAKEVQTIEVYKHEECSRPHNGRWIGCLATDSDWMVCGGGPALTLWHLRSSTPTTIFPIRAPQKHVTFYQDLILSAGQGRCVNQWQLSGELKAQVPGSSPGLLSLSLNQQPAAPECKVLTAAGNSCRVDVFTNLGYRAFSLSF
UniProt Q01085: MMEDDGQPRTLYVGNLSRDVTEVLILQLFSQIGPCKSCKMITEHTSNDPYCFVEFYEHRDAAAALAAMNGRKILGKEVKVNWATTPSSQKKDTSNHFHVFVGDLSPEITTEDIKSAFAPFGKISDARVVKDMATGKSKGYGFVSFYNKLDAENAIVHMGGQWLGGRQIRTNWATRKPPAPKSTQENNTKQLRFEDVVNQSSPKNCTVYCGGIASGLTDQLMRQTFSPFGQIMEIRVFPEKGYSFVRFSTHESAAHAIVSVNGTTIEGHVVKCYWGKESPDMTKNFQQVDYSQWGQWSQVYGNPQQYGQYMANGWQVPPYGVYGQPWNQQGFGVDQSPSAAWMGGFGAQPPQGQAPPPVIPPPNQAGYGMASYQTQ
UniProt Q96FV9: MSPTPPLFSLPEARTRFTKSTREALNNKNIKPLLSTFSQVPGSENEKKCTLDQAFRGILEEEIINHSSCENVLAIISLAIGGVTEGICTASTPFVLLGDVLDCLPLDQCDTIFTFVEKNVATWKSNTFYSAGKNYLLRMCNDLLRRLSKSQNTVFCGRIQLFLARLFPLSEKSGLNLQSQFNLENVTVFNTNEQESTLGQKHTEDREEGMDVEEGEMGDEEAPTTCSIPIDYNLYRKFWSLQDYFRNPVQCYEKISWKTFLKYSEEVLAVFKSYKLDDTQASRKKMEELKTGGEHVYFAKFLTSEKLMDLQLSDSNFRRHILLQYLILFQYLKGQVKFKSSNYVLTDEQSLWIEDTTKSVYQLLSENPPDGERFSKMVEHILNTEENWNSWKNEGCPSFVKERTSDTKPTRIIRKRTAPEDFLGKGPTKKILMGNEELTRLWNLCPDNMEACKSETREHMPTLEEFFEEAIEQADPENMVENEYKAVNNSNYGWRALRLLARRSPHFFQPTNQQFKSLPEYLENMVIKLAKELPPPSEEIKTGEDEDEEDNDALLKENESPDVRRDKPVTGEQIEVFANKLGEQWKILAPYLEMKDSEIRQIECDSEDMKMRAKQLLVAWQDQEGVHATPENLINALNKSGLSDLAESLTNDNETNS
UniProt P52888, whole entry, looked up: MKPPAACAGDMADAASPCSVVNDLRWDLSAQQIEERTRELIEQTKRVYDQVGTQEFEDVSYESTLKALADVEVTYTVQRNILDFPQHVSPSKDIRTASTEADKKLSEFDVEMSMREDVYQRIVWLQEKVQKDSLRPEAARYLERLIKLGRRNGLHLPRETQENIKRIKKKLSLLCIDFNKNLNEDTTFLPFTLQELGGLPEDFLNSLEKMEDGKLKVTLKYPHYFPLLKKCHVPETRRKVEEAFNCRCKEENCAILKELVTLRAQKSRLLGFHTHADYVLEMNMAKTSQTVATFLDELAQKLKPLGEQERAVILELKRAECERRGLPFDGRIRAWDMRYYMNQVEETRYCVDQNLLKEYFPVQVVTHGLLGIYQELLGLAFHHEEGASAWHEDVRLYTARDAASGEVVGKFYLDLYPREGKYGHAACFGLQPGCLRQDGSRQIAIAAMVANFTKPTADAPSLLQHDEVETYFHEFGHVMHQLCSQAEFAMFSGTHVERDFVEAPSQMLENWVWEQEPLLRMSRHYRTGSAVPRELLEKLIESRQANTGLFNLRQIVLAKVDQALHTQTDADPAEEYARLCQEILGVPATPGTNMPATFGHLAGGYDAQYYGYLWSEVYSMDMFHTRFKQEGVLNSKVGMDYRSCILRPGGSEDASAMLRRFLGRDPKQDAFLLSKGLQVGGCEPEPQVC
UniProt Q86UB9: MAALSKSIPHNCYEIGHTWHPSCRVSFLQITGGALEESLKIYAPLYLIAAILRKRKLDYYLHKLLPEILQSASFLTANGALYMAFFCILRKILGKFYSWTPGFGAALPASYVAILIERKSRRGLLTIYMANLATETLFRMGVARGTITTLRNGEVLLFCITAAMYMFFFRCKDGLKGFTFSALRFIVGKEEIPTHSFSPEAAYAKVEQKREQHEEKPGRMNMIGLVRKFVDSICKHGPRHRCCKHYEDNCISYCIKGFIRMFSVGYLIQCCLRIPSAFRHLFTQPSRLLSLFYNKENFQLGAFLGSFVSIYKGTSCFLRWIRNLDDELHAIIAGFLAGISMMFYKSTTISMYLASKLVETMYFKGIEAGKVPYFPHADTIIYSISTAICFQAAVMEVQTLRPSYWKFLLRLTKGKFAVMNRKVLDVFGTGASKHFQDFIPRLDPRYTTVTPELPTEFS
UniProt Q04726: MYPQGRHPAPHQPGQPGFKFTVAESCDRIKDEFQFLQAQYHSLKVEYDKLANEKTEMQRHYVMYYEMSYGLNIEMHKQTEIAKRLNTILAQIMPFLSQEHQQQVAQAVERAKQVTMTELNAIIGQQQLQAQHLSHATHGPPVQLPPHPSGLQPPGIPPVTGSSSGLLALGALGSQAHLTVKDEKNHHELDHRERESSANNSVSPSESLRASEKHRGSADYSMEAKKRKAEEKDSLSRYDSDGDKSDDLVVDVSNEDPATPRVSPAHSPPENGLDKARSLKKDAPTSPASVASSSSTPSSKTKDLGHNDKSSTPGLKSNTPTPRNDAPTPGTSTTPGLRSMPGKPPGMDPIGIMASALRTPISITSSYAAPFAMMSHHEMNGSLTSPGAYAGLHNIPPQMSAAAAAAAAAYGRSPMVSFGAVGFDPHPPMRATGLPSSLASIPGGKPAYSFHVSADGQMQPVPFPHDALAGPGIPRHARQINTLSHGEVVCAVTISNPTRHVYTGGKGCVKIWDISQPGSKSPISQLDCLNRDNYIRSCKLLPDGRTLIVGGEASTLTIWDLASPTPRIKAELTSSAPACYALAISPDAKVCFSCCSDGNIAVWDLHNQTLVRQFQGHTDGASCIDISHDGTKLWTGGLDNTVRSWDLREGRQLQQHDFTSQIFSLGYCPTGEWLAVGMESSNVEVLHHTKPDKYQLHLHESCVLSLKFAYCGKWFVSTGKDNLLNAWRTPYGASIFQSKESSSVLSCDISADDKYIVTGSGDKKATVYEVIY
UniProt Q9UDY2: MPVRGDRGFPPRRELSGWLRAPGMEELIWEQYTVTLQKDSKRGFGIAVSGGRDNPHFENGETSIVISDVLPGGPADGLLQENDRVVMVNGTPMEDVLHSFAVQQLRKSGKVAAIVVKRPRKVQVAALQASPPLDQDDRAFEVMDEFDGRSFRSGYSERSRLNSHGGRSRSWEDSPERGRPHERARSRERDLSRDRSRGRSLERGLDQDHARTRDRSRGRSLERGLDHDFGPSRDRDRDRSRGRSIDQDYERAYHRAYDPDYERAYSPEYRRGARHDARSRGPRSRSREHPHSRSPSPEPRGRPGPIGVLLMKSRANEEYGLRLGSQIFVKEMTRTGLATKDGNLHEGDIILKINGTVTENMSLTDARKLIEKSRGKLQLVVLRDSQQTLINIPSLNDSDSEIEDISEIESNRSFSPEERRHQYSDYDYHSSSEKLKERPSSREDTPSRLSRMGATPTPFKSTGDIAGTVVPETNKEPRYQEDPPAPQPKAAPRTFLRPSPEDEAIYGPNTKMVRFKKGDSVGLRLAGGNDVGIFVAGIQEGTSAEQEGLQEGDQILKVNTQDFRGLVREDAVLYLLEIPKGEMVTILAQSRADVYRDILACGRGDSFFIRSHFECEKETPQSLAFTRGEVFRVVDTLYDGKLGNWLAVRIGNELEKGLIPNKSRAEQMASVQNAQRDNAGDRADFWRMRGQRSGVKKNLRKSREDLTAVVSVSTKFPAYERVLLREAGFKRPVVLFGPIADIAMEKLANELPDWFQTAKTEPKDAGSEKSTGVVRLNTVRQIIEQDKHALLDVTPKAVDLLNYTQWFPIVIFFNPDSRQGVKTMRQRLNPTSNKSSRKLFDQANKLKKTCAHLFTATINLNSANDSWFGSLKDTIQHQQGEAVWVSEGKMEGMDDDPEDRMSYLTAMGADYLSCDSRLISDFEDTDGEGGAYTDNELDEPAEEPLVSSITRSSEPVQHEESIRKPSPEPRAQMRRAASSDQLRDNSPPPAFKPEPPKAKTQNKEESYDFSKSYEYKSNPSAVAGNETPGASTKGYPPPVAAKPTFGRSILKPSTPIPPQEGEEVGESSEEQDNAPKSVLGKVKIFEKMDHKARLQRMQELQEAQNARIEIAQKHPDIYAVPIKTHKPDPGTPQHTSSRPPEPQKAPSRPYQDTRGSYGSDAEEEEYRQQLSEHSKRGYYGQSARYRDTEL
UniProt Q9BV44: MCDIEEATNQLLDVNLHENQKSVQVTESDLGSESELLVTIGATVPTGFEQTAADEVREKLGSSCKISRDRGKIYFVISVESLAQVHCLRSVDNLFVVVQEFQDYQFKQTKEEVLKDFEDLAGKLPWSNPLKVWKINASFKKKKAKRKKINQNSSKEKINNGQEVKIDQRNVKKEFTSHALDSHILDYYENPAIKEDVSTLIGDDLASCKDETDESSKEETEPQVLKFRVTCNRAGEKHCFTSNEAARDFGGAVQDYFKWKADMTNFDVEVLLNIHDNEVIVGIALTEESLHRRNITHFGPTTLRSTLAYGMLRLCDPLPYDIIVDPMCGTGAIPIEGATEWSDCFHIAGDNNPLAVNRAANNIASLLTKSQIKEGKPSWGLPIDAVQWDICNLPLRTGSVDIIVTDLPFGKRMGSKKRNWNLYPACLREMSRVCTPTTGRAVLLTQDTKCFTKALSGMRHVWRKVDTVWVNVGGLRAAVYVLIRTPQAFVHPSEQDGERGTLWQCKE
UniProt Q5T1C6: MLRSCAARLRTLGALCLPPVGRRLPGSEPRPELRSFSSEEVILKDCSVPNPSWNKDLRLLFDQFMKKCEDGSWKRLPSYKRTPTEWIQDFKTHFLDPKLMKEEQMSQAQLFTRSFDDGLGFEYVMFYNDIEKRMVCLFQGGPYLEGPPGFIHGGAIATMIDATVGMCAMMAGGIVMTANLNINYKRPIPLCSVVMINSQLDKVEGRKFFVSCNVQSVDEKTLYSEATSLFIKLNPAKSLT
UniProt P62072: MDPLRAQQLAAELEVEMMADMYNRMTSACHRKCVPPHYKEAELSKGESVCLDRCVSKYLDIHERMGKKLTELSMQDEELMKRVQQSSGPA
UniProt Q9Y3A6: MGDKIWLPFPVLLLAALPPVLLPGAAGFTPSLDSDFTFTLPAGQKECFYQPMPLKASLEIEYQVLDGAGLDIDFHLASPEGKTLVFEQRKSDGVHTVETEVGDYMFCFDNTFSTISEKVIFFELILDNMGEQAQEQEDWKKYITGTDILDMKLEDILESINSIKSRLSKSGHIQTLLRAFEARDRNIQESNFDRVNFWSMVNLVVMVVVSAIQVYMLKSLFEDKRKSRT
UniProt O60220: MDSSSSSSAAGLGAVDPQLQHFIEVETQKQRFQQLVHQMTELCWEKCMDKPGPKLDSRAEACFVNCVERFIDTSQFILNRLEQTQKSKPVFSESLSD
UniProt P55061, whole entry, looked up: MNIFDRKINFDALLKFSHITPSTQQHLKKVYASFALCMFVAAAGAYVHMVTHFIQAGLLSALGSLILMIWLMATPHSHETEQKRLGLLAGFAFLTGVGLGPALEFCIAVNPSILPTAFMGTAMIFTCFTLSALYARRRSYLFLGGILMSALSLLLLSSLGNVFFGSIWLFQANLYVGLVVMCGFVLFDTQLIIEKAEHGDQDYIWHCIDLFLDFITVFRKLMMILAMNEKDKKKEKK
UniProt Q9BU02: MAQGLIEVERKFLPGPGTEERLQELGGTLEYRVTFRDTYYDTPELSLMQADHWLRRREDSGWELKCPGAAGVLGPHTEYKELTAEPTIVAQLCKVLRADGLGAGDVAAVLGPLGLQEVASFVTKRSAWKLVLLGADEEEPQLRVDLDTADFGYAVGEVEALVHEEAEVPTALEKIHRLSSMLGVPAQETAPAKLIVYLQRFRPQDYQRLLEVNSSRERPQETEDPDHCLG
UniProt P31483: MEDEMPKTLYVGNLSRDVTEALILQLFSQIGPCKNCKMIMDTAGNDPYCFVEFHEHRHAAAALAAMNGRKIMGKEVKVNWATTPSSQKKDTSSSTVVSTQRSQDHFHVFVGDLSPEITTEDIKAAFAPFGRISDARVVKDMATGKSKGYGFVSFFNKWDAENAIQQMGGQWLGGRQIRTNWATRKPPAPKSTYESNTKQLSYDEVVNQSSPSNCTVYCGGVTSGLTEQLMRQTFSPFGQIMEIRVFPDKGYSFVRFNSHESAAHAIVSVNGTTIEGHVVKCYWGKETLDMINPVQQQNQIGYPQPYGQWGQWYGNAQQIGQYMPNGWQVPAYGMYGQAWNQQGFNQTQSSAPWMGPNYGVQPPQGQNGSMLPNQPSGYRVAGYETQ
UniProt Q9Y5L4: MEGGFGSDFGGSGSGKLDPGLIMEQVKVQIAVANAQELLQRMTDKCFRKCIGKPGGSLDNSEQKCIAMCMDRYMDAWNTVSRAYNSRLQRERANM

Key:
Experiment in all cases: log2 fold change, soluble protein after heating vs DMSO (PISA); higher = thermal stabilisation; K562 lysate, 10 uM; active = over 0.2 and 3.5 SD of the protein, either way, in both replicates (recomputed)
nilotinib = compound: Cc1cn(-c2cc(NC(=O)c3ccc(C)c(Nc4nccc(-c5cccnc5)n4)c3)cc(C(F)(F)F)c2)cn1 [nilotinib]
Outline: (§1)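 A 30 min treatment with 10 μM compound was applied to crude K562 extract at 1 mg/mL protein in PBS pH 7.4 with 1 mM MgCl2. Heating for 3 min spanned 48°C-58°C, after which aliquots were pooled, adjusted to 0.5% NP-40 at 4°C and spun at 21,000xg for 90 min. TMTpro 16plex LC-MS/MS of the supernatant, with channel sums equalised, gave values recorded as log-two fold change in thermal stability against solvent controls, from duplicates.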

[1] = compound: Cc1nc(Nc2n[nH]c3c2CN(C(=O)N[C@H](CN(C)C)c2ccccc2)C3(C)C)c2sccc2n1
Outline: as §1

dasatinib = compound: Cc1nc(Nc2ncc(C(=O)Nc3c(C)cccc3Cl)s2)cc(N2CCN(CCO)CC2)n1 [dasatinib]
Outline: as §1

[2] = compound: Cc1ncc(-c2ccnc(Nc3ccc(S(C)(=O)=O)cc3)n2)n1C(C)C
Outline: as §1

[3] = compound: Cn1cc(-c2ccc3c(c2)CCN3C(=O)Cc2cccc(C(F)(F)F)c2)c2c(N)ncnc21
Outline: as §1

quisinostat = compound: Cn1cc(CNCC2CCN(c3ncc(C(=O)NO)cn3)CC2)c2ccccc21 [quisinostat]
Outline: as §1

tipifarnib = compound: Cn1cncc1[C@@](N)(c1ccc(Cl)cc1)c1ccc2c(c1)c(-c1cccc(Cl)c1)cc(=O)n2C [tipifarnib]
Outline: as §1

[4] = compound: NC(=O)Nc1cc(-c2cccc(F)c2)sc1C(=O)N[C@H]1CCCNC1
Outline: as §1

[5] = compound: NC(=O)c1cnc(N[C@@H]2CCCC[C@@H]2N)nc1Nc1cccc(-n2nccn2)c1
Outline: as §1

[6] = compound: NC1(c2ccc(-c3nc4ccn5c(=O)[nH]nc5c4cc3-c3ccccc3)cc2)CCC1
Outline: as §1

Measured: log2 fold change

THOC5 (UniProt Q13769)
inactive: nilotinib -0.035 | [1] 0.006 | dasatinib -0.014 | [2] -0.036 | [3] 0.029 | quisinostat -0.006 | tipifarnib -0.019 | [4] 0.021 | [5] 0.009 | [6] -0.01

THOC6 (UniProt Q86W42)
inactive: nilotinib 0.011 | [1] -0.036 | dasatinib -0.007 | [2] -0.022 | [3] 0.005 | quisinostat -0.009 | tipifarnib 0.062 | [4] 0.007 | [5] 0.018 | [6] -0.054

TMEM115 (UniProt Q12893)
inactive: nilotinib 0.012 | [1] -0.109 | dasatinib 0.05 | [2] 0.073 | [3] 0.031 | quisinostat -0.061 | tipifarnib 0.004 | [4] 0.051 | [5] 0.06 | [6] -0.054

TM9SF4 (UniProt Q92544)
inactive: nilotinib -0.016 | [1] -0.01 | dasatinib -0.01 | [2] 0.008 | [3] 0.012 | quisinostat 0.038 | tipifarnib -0.065 | [4] -0.025 | [5] 0.039 | [6] -0.012

TGOLN2 isoform 7 (UniProt O43493)
inactive: nilotinib -0.059 | [1] -0.004 | dasatinib 0.023 | [2] 0.021 | [3] 0.033 | quisinostat -0.029 | tipifarnib -0.087 | [4] 0.014 | [5] 0.019 | [6] 0.008

TIAL1 isoform 2 (UniProt Q01085)
active: nilotinib -0.603
inactive: [1] -0.013 | dasatinib 0.025 | [2] -0.015 | [3] 0.028 | quisinostat 0.039 | tipifarnib -0.037 | [4] -0.016 | [5] 0.004 | [6] 0.033

THOC1 (UniProt Q96FV9)
inactive: nilotinib 0.016 | [1] 0.004 | dasatinib -0.015 | [2] 0.03 | [3] 0.008 | quisinostat -0.036 | tipifarnib -0.003 | [4] -0.004 | [5] -0.017 | [6] 0.033

THOP1 (UniProt P52888)
inactive: nilotinib 0.03 | [1] 0.019 | dasatinib -0.023 | [2] 0.024 | [3] 0.015 | quisinostat -0.012 | tipifarnib 0.005 | [4] -0.011 | [5] -0.013 | [6] 0.017

TMEM135 (UniProt Q86UB9)
inactive: nilotinib 0.009 | [1] 0.007 | dasatinib 0.095 | [2] -0.085 | [3] 0.01 | quisinostat 0.034 | tipifarnib -0.096 | [4] 0.008 | [5] 0.014 | [6] -0.04

TIMM50 isoform 2 (UniProt Q3ZCQ8)
inactive: nilotinib -0.005 | [1] -0.011 | dasatinib -0.007 | [2] -0.091 | [3] -0.02 | quisinostat -0.049 | tipifarnib -0.065 | [4] 0.046 | [5] 0.015 | [6] -0.022

TLE3 isoform 4 (UniProt Q04726)
inactive: nilotinib 0.011 | [1] 0.053 | dasatinib -0.002 | [2] 0.001 | [3] -0.038 | quisinostat 0.008 | tipifarnib -0.003 | [4] 0.012 | [5] 0.001 | [6] -0.003

TJP2 isoform 7 (UniProt Q9UDY2)
inactive: nilotinib -0.037 | [1] 0.019 | dasatinib -0.022 | [2] -0.013 | [3] 0.044 | quisinostat 0.021 | tipifarnib 0.033 | [4] -0.018 | [5] 0.007 | [6] -0.027

THUMPD3 (UniProt Q9BV44)
inactive: nilotinib 0.006 | [1] -0.007 | dasatinib 0.039 | [2] 0.002 | [3] -0.005 | quisinostat -0.076 | tipifarnib 0 | [4] -0.004 | [5] -0.016 | [6] 0.001

TJAP1 (UniProt Q5JTD0)
inactive: nilotinib 0.004 | [1] 0.006 | dasatinib 0.047 | [2] 0.065 | [3] -0.049 | quisinostat -0.025 | tipifarnib -0.045 | [4] 0.019 | [5] -0.028 | [6] -0.05

THEMIS2 (UniProt Q5TEJ8)
inactive: nilotinib -0.096 | [1] 0.06 | dasatinib -0.092 | [2] -0.144 | [3] 0.059 | quisinostat 0.03 | tipifarnib -0.039 | [4] 0.051 | [5] 0.095 | [6] 0.019

THEM4 (UniProt Q5T1C6)
inactive: nilotinib -0.002 | [1] 0.032 | dasatinib 0.052 | [2] -0.107 | [3] 0.084 | quisinostat -0.067 | tipifarnib 0.022 | [4] 0.014 | [5] -0.009 | [6] -0.011

TMEM173 (UniProt Q86WV6)
inactive: nilotinib -0.034 | [1] -0.041 | dasatinib -0.091 | [2] -0.113 | [3] 0.043 | quisinostat -0.108 | tipifarnib 0.021 | [4] -0.023 | [5] -0.013 | [6] -0.036

2 records picked at random from those above:
TMEM173 (UniProt Q86WV6)
inactive: nilotinib -0.034 | [1] -0.041 | dasatinib -0.091 | [2] -0.113 | [3] 0.043 | quisinostat -0.108 | tipifarnib 0.021 | [4] -0.023 | [5] -0.013 | [6] -0.036

TJAP1 (UniProt Q5JTD0)
inactive: nilotinib 0.004 | [1] 0.006 | dasatinib 0.047 | [2] 0.065 | [3] -0.049 | quisinostat -0.025 | tipifarnib -0.045 | [4] 0.019 | [5] -0.028 | [6] -0.05

Later entries

TIMM10 (UniProt P62072)
inactive: nilotinib -0.013 | [1] 0.024 | dasatinib 0.042 | [2] -0.017 | [3] 0.057 | quisinostat 0.045 | tipifarnib 0.037 | [4] -0.021 | [5] 0.025 | [6] 0.013

TMED5 (UniProt Q9Y3A6)
inactive: nilotinib 0.012 | [1] -0.007 | dasatinib -0.063 | [2] 0.014 | [3] -0.013 | quisinostat 0.131 | tipifarnib -0.034 | [4] 0 | [5] 0.039 | [6] 0.006

TMEM120A (UniProt Q9BXJ8)
inactive: nilotinib -0.009 | [1] -0.031 | dasatinib -0.174 | [2] -0.089 | [3] -0.057 | quisinostat -0.108 | tipifarnib -0.03 | [4] 0.006 | [5] 0.058 | [6] 0.06

TIMM8A (UniProt O60220)
inactive: nilotinib 0.086 | [1] -0.002 | dasatinib 0.015 | [2] 0.192 | [3] -0.04 | quisinostat -0.049 | tipifarnib 0.026 | [4] -0.001 | [5] 0.046 | [6] -0.021

TMBIM6 isoform 2 (UniProt P55061)
inactive: nilotinib 0.064 | [1] -0.039 | dasatinib 0.019 | [2] 0.056 | [3] 0.005 | quisinostat 0.06 | tipifarnib -0.058 | [4] -0.018 | [5] -0.007 | [6] 0.007

THOC7 (UniProt Q6I9Y2)
inactive: nilotinib 0.03 | [1] 0.054 | dasatinib 0.003 | [2] 0.112 | [3] 0.043 | quisinostat -0.055 | tipifarnib -0.003 | [4] -0.015 | [5] 0.007 | [6] 0.016

THTPA (UniProt Q9BU02)
inactive: nilotinib 0.077 | [1] -0.012 | dasatinib 0.044 | [2] 0.052 | [3] -0.023 | quisinostat 0.067 | tipifarnib -0.053 | [4] -0.031 | [5] -0.059 | [6] 0.009

TLN2 (UniProt Q9Y4G6)
inactive: nilotinib 0.012 | [1] -0.005 | dasatinib 0.036 | [2] -0.003 | [3] 0.003 | quisinostat -0.052 | tipifarnib 0.01 | [4] -0.005 | [5] -0.001 | [6] -0.013

TIA1 (UniProt P31483)
inactive: nilotinib -0.229 | [1] -0.071 | dasatinib -0.012 | [2] 0.026 | [3] -0.023 | quisinostat 0.054 | tipifarnib -0.022 | [4] 0.029 | [5] 0.067 | [6] -0.086

TMEM11 (UniProt P17152)
inactive: nilotinib 0.011 | [1] -0.011 | dasatinib 0 | [2] -0.029 | [3] -0.024 | quisinostat 0.037 | tipifarnib -0.01 | [4] 0 | [5] -0.008 | [6] -0.016

TIMM13 (UniProt Q9Y5L4)
inactive: nilotinib -0.004 | [1] 0.056 | dasatinib -0.042 | [2] 0.006 | [3] 0.009 | quisinostat 0.008 | tipifarnib -0.002 | [4] -0.021 | [5] -0.012 | [6] 0.028

TIMM17B (UniProt O60830)
inactive: nilotinib -0.003 | [1] 0.051 | dasatinib 0.012 | [2] -0.03 | [3] -0.048 | quisinostat 0.006 | tipifarnib -0.049 | [4] 0.017 | [5] -0.006 | [6] -0.014
